Assay results reported in patent US9416141B2 (University of Washington through its Center for …, priority 2012, dated 2016).
At least one read-out could not be matched to a standard name with certainty.

Tested on: hair cells
Assay: Hair cell toxicity assay in zebrafish (neomycin-induced hair cell death, DASPEI staining of neuromasts)
Type: in vivo
Settings: 200 micromolar neomycin
Description: Zebrafish are bred and newly fertilized embryos are collected the week prior and raised at 28.5° C. in petri dishes containing embryo medium. Newly hatched free-swimming larvae are fed paramecium and dry fish food at 4 days post fertilization (dpf) with lights on. For treatment, fish 5-7 dpf are transferred to cell culture baskets and place within a well of a 6-well plate containing 7 milliliters of 1× embryo medium. Typically, tests are done with ten fish per basket but work well with up to 50 fish. All treatment and wash volumes are 7 milliliters. • 1. Fish are pre-treated with test compound for 1 hour. […] Treat with 200 micromolar neomycin (neomycin sulfate, Sigma, St. Louis, Mo., catalog #N1142)+test compound for 30 minutes. • 3. Rinse fish briefly 4 times in embryo medium and add 700 μl of 0.05% DASPEI (2-{4-(dimethylamino)styryl}-N-ethylpyridinium iodide, Molecular Probes, Eugene, Oreg.) and allowed to stain for 15 minutes. • 4. Rinse twice in embryo medium and add 350 μl MS222 (0.55 ug/ml final concentration, 3-aminobenzoic acid ethyl ester, methansulfoneate salt, Sigma, St. Louis, Mo.) to anesthetize. • 5. View with epifluorescence dissecting microscope equipped with a DAPSEI filter set (excitation […], Chroma Technologies, Brattleboro, Vt.). […] The DASPEI staining of ten neuromasts (SO1, SO2, IO1, IO2, IO3, IO4, M2, MI1, MI2 and O2) on one side of an animal are evaluated. Each neuromast is scored for presence of DASPEI staining (score=2), reduced DASPEI staining (score=1) or absence of DASPEI staining (score=0). […] Average scores and standard deviations are calculated for animals in each treatment group. Scores are normalized to control group (vehicle only, no drug, no neomycin) and expressed as % hair cell survival. […] If at least 50% hair cells survive, the HC50 (concentration that would produce 50% hair cell survival) is calculated as a linear extrapolation from the nearest concentrations of protective drug that produce hair cell survival below and above 50%. If less than 50% hair cells survive, the HC50 is not determined. […]

[1] = maximum observed @ 2.8 μM test compound, hydrochloride

SMILES	Max HC Protection (HCmax, % hair cell survival) [1]	Max HC Protection (HCmax, % hair cell survival) (maximum observed @ 25 μM test compound)
CN1C2CCC1c1sc(NC(=O)Nc3ccc(Cl)cc3)c(C(N)=O)c1C2.Cl (single isomer, unassigned; (+)) [Example 128, (+)-2-[3-(4-Chlorophenyl)ureido]-9-methyl-5,6,7,8-tetrahydro-4H-5,8-epiminocyclohepta[b]thiophene-3-carboxamide hydrochloride]	93% @ 2.8 μM	
CN1C2CCC1c1sc(NC(=O)Nc3ccc(Cl)cc3)c(C(N)=O)c1C2.Cl (single isomer, unassigned; (-)) [Example 127, (−)-2-[3-(4-chlorophenyl)ureido]-9-methyl-5,6,7,8-tetrahydro-4H-5,8-epiminocyclohepta[b]thiophene-3-carboxamide hydrochloride]	55% @ 2.8 μM	
CCN1CCc2c(sc(NC(=O)Nc3ccc(C(F)(F)F)cc3)c2C(N)=O)C1.Cl [Example 72, 6-Ethyl-2-[3-(4-(trifluoromethyl)phenyl)ureido]-4,5,6,7-tetrahydrothieno[2,3-c]pyridine-3-carboxamide hydrochloride]		68% @ 25 μM
